Laboratory results from patent publication US6645728.
Changes are numbered by the printed parent chain. These are yes or no findings as the source states them, for the method shown. Binding seen in cells or lysates may run through a third protein. Some results given as binding are weak or reduced against the parent protein; the word gives no strength.

Protein sequences, listed by entry. Tags and fused reporters are not part of them. Lines headed by an entry give the natural chain unless they say otherwise; changes in a name come on top.
UniProt Q99558: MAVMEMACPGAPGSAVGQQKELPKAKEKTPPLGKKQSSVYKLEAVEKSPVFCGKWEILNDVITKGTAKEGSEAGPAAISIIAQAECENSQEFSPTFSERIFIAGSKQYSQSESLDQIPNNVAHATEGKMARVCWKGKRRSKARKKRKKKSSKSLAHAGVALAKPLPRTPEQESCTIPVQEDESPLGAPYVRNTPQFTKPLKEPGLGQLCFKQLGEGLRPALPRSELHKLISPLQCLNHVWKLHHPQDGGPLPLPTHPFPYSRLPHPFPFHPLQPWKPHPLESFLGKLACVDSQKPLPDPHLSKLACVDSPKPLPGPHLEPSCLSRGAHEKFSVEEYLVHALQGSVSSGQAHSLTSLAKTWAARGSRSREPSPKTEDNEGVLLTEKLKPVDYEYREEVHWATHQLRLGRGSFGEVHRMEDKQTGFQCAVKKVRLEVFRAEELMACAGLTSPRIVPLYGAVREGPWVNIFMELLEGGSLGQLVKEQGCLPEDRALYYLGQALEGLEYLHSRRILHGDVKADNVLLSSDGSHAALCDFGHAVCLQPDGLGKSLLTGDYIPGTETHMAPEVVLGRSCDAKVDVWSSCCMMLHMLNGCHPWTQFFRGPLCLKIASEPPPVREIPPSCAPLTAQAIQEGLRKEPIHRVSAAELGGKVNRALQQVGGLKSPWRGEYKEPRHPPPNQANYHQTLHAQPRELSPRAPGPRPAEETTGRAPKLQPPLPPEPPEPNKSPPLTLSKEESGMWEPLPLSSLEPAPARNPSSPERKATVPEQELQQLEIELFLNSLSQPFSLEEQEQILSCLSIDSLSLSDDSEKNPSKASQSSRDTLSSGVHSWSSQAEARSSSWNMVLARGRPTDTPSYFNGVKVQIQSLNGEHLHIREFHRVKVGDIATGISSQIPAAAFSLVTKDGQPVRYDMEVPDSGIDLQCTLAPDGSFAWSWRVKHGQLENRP

What was measured:
[1] = molecular target: NIK-T7 (Homo sapiens (Human)) (UniProt Q99558); test: co-immunoprecipitation from 293 lysates, anti-T7 IP, anti-Myc blot
IKKα-T7 (murine) = molecular target: T1, IKKα-T7 (murine) (UniProt Q60680); test: as above
T1 sequence (looked up): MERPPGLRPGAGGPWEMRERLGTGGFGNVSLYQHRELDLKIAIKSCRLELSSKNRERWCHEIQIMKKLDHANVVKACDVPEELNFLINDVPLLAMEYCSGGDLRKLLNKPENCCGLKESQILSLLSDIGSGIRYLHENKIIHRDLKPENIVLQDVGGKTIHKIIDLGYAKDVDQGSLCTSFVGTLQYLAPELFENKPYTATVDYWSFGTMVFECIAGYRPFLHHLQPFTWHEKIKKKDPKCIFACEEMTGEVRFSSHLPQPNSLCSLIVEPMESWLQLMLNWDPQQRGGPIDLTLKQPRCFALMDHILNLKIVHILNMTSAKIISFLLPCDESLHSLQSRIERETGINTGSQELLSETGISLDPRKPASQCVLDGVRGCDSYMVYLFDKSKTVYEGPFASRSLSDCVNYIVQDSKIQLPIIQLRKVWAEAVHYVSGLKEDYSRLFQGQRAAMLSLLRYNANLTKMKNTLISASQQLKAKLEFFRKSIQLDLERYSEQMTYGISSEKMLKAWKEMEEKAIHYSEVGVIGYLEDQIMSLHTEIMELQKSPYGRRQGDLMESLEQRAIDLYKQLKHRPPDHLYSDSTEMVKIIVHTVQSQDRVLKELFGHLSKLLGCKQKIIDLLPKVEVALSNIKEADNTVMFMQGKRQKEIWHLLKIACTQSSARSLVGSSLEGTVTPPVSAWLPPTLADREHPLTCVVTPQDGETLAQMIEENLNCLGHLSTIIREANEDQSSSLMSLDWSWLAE

[2] = molecular target: T2, kinase-deficient IKKα (K44M) (UniProt Q60680); test: IKKα immunoprecipitation with co-immunoprecipitated NIK, immunocomplex kinase reaction
T2 sequence (looked up): T1 sequence (looked up) with K44M

[3] = molecular target: T2, kinase-deficient IKKα (K44M); test: co-immunoprecipitation with IKKα from transfected 293 cells (FIG. 4A)
[4] = molecular target: T2, kinase-deficient IKKα (K44M); test: co-immunoprecipitation with IKKα from transfected 293 cells

Myc-N1-366 (from UniProt Q99558 1-366)
binding [1]: binds

Myc-N1-578 (from UniProt Q99558 1-578)
binding [1]: binds

Myc-N1-624 (from UniProt Q99558 1-624)
binding [1]: binds

Myc-N570-947 (from UniProt Q99558 570-947)
binding (IKKα-T7 (murine)): binds

Myc-N624-947 (from UniProt Q99558 624-947)
binding (IKKα-T7 (murine)): binds | binding [1]: binds

Myc-NIK (from UniProt Q99558 1-947) (enzyme)
binding [2]: binds

NIK-S549A (from UniProt Q99558 1-947) (enzyme)
binding [2]: binds

NIK-T552A (from UniProt Q99558 1-947) (enzyme)
binding [2]: binds

NIK-T559A (from UniProt Q99558 1-947) (enzyme)
binding [3]: binds | binding [4]: binds
